# Test results as given in PubChem BioAssay AID1490 (National Center for Advancing Translational Sciences (NCATS), 2009).
# Out of some 310,000 compounds screened, about 11,000 (3.5%) were called active. Listed are the inconclusive results; actives and inactives stand elsewhere. Calls follow the shape of the dose curve; as a rule, active = well fitted inhibition curve with a large enough effect; inconclusive = small, poorly fitted or top-dose-only effect, or another doubt; inactive = no such curve, though single readings can be large or run the other way.
# Target: 4'-phosphopantetheinyl transferase ffp (Bacillus subtilis) (UniProt Q9F4F7)
# Assay: qHTS Assay for Inhibitors of Bacillus subtilis Sfp phosphopantetheinyl transferase (PPTase);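 also: the enzyme is Sfp with the accession as filed and its product quenches rhodamine fluorescence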
# Conditions: Biochemical Sfp PPTase activity
# Potency is read from the fitted curve at half-maximal effect.
row,SMILES,Potency
1,Cc1nc2ccc3ccccc3c2s1.O=[N+]([O-])c1cc([N+](=O)[O-])c(O)c([N+](=O)[O-])c1,inconclusive: 89.1 µM
